In the assay the target is T1, UNC-112::YFP-N (C. elegans) (UniProt Q18685).
T1 sequence: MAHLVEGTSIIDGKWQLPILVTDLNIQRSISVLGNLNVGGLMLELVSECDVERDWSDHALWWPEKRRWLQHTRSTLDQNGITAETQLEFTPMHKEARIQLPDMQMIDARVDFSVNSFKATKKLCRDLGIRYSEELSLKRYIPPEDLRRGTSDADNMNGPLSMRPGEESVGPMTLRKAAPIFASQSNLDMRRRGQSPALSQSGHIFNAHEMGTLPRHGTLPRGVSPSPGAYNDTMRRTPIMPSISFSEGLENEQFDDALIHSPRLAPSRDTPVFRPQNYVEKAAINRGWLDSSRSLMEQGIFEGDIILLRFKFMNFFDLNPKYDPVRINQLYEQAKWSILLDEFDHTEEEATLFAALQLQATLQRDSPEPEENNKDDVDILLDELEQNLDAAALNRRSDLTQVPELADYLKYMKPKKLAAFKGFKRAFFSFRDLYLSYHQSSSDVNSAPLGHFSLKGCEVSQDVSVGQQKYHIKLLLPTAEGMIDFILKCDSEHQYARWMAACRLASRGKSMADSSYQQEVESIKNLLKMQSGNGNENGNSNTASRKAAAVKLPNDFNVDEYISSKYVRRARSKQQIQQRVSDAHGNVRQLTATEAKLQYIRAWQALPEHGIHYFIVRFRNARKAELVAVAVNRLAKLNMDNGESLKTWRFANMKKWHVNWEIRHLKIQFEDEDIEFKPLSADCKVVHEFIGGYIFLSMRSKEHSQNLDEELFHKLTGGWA
The assay is described as follows: split reporter.

Results are given in words; binding and its absence hold for the method and conditions named. In cells and extracts the contact can be indirect. Some results given as binding are weak or reduced against the parent protein; the word gives no strength. Tags and fused reporters may be left off the sequences shown.

B1: PAT-4::YFP-C (protein, UniProt Q9TZC4 1-466)
chain: MSLSTHYHAHKPNVPIIMEDVFGWVREGNAFQVRVWLDDHEHDLNVGDDHAFSLLHWAAKGGHVAIAEMLLSRGARVNSTNMGDDTSLHLAAAHGHRQIVVKLLSRKADVNATNEHGMTPLHYACFWGYEQIAEDLISCGAAVNVCNKKGMTPLDVCQPMCKNTILEIAQEHGQSPNDRVPFKDTTWKGTKSRTRDATLSRYTGVDVSSLNLITKIAESHSGELWRGKWQGNDIVARILNVQEVTARISRDFQTEFPALRIFAHPNICAVLAAANQPPNLVIISQYMPFGSLYNVLHEQSSVVIDHGQAVRFALDIARGMSYLHSLDPMLLRFYLSSKHVVVDEELTAKLSMADTKFSFQEVGKAYSPAWMSPEALSRAPEDLNIRAADMWSFAILLWELNTREVPFSDLPPMECGMKIALEGLRVHIPPGIARNMNRLMNICMNEDPGRRPNFDQIIPILERMIL
As to B1, the binding entry is given as “binds”.

The values are drawn from publication doi:10.1101/2025.02.28.640866.
